Results published in patent publication US20040176349A1, “Antibacterial composition” (priority 2001, published 2004).
“And” between values parts separate entries of the source, which are not always exact repeats. Equal entries are not always repeated. For some assays here: At least one read-out could not be matched to a standard name with certainty. For some assays here: At least one structure is not confirmed: it was looked up by name or label, or the drawing left a doubt.

Key:
E. faecalis ATCC 29212 = assay: Checkerboard microdilution MIC with PFOB, Table 2; type: cell-based; settings: optimum synergistic combination with PFOB, second figure (partner), listed as Ceflazidime
Description: (§1) The aim of the study was to detect any synergy between PFOB and the other antibiotics. For the purposes of the study, synergy was defined in accordance with the FIC (fractional inhibitory concentration) index, as disclosed by Lorian (1991, In “Antibiotics in Laboratory Medicine” 3rd edition, Eds. Williams & Wilkins; esp. p 434-443). In essence, if the combination of test compounds gives at least a 4-fold reduction in the FIC value for each compound, then a synergy may be considered to exist (i.e. FIC of the combination <0.5=synergy; FIC 0.5-2.0=“indifference”; and FIC >2=antagonism).
In Table 2, results in the checkerboard indicating synergy are hatched, and specific optimum synergistic combinations are boxed.

enterococci = assay: Checkerboard study, synergy summary of Example 2; type: cell-based, Enterococcus; settings: in words
Description: as §1

Row | Compound | MIC of PFOB & Partner: Partner concentration (E. faecalis ATCC 29212) | synergy with PFOB (enterococci)
1 | CC(C)(O/N=C(\C(=O)N[C@@H]1C(=O)N2C(C(=O)[O-])=C(C[n+]3ccccc3)CS[C@H]12)c1csc(N)n1)C(=O)O [CAZ, ceftazidime] | 16 µg/mL and 32 µg/mL | –
2 | C[C@@H](O)[C@H]1C(=O)N2C(C(=O)O)=C(SCCN=CN)C[C@H]12 [Imipenem, imipenem] | – | less marked, but still significant, synergy
